Patent US20160193292A1
No constants are given. Whether binding was seen depends on the method and setting. Some entries that bind do so weakly or less than the wild type.

Molecular target: T1, JNK-interacting protein 1 (JIP-1) (UniProt Q9WVI9)
T1 sequence (looked up): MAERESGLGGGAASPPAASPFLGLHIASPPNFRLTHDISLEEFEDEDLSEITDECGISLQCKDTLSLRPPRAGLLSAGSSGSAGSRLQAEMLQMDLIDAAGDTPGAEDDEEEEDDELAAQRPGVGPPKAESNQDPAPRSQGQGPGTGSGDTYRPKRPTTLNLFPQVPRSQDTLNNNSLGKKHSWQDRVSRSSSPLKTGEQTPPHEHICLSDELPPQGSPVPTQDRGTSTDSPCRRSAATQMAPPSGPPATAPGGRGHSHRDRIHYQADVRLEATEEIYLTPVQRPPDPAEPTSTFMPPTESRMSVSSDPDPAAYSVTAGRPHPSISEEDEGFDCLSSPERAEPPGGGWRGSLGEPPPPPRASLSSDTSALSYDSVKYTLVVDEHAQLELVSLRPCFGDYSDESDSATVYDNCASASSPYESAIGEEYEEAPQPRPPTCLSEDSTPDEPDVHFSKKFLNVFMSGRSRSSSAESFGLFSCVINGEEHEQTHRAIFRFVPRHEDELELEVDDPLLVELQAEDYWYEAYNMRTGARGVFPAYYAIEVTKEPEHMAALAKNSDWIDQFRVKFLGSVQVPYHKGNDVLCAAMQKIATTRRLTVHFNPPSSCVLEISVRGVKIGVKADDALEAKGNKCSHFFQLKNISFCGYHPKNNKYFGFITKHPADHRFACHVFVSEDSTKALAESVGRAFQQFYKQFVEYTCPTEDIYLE
Test: IP-FCM with α-JIP-1 beads in the presence of Tat-POSH

B1: MKK7 (enzyme, UniProt Q8CE90 2-535, looked up)
chain: AASSLEQKLSRLEAKLKQENREARRRIDLNLDISPQRPRPIIVITLSPAPAPSQRAALQLPLANDGGSRSPSSESSPQHPTPPTRPRHMLGLPSTLFTPRSMESIEIDQKLQEIMKQTGYLTIGGQRYQAEINDLENLGEMGSGTCGQVWKMRFRKTGHIIAVKQMRRSGNKEENKRILMDLDVVLKSHDCPYIVQCFGTFITNTDVFIAMELMGTCAEKLKKRMQGPIPERILGKMTVAIVKALYYLKEKHGVIHRDVKPSNILLDERGQIKLCDFGISGRLVDSKAKTRSAGCAAYMAPERIDPPDPTKPDYDIRADVWSLGISLVELATGQFPYKNCKTDFEVLTKVLQEEPPLLPGHMGFSGDFQSFVKDCLTKDHRKRPKYNKLLEHSFIKHYEILEVDVASWFKDVMAKTESPRTSGVLSQHHLPFFSTSVTWGAWPLAAQTPFQSGVIRCRGRVPSPRRATGGSGGQPCVCAGGPGPSFTEMGPSPSPMLSNTFFTPDPGACPGASTWGLPRRRLCQLLTTSTPGCC
In the case of B1, the binding is reported as “binds”.
